In patent US20210324059A1:
These are yes or no findings as the source states them, for the method shown. Some entries that bind do so weakly or less than the wild type. Tags and fused reporters may be left off the sequences shown.

Assays:
human Loricrin (human) [1] = molecular target: T1, human Loricrin (human) (UniProt P23490); assay: automated immunohistochemistry, fast red chromogen
T1 sequence: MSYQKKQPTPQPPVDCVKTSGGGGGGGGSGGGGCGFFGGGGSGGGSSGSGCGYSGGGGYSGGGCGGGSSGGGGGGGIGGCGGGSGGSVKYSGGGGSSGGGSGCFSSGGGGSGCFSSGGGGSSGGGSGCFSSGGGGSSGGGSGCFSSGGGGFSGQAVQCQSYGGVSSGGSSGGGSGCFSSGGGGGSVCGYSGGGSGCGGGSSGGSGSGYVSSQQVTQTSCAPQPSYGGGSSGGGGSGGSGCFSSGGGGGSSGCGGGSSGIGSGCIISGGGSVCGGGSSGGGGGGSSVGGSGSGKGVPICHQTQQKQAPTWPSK

human Loricrin (human) [2] = molecular target: T1, human Loricrin (human); assay: quality control ELISA, chimeric human/mouse IgG1 on immobilized Loricrin, signal over background

binding (human Loricrin (human) [1]): binds
binding (human Loricrin (human) [2]): binds
B1: full length chimeric antibody AbD33047 with an IgG1 mouse Fc region (antibody, V domains shown)
VH: QVQLVQSGAEVKKPGASVKVSCKASGYTFNDYYIHWVRQAPGQGLEWMGVISPNSGKTNYAQKFQGRVTMTRDTSISTAYMELSRLRSEDTAVYYCARDLYPDSSAFDIWGQGTLVTVSS
VL: DIELTQPPSVSVSPGQTASITCSGDNLGDKYAHWYQQKPGQAPVLVIYDDNERPSGIPERFSGSNSGNTATLTISGTQAEDEADYYCQSYDSGNRVFGGGTKLTVLG
